In patent US9133242B2, “Peptide for use as a medicament, in particular for the treatment of cancer” (priority 2010, dated 2015):
Not every detail of the peptide structures is certain; ends, links or a residue may be inferred. Where no end group is shown, it is not given here.

Columns and labels:
[1] = tested on: FIBRO 1 fibroblasts (M, IVG fibroblasts); test: MTT cell viability, FIBRO 1 fibroblasts; type: cell-based, human; conditions: 48 hours of treatment
[2] = tested on: NB 4 leukemic lymphocytes (L.4, acute promyelocytic leukemia cell line); test: MTT cell viability, leukemic lymphocyte line L.4; type: cell-based; conditions: line L.4, 48 hours of treatment
[3] = tested on: COS (Monkey kidney tumor); test: MTT cell viability, COS kidney line; type: cell-based; conditions: 48 hours of treatment
MNT-1 melanoma cells = test: Immunofluorescent labeling of microtubule network, MNT-1; type: cell-based; conditions: MNT-1, 15 μM, 4 hours; not as great as in A549
[4] = tested on: TX 1 cells (line derived from breast tumors which no longer respond to Taxol); test: Growth inhibition of Taxol-resistant TX 1 cells; type: cell-based; conditions: after 24 H of culture
Experimental: (§1) The studies were carried out on two cell lines, TX 1 and TX 2, derived from breast tumors which no longer respond to Taxol. […] 1 and the peptide of SEQ. 7. […]

PANC 1 pancreatic cells = test: Immunofluorescent labeling of microtubule network, PANC 1; type: cell-based; conditions: PANC 1, 15 μM, 4 hours; not as great as in A549
[5] = tested on: microtubules purified from rat brain; test: In vitro polymerization of purified microtubules (turbidity at 345 nm); type: biochemical; conditions: 23.3 to 93.3 μM, 37° C., 15 min, versus control
[6] = tested on: FIBRO 2 fibroblasts (N, N 12 fibroblasts); test: MTT cell viability, FIBRO 2 fibroblasts; type: cell-based, human; conditions: 48 hours of treatment
U87 M6 (Glioblastoma) = test: MTT cell viability, U87 M6 glioblastoma line; type: cell-based
[7] = tested on: PANC 1 (Human pancreatic tumor); test: MTT cell viability, PANC 1 pancreatic line; type: cell-based; conditions: PANC 1, 48 hours of treatment
[8] = tested on: microtubules purified from rat brain; test: Stability of microtubules to depolymerization at 4° C.; type: biochemical; conditions: 46.6 to 116 μM, 4° C. for 30 min; complete at very high concentration
[9] = tested on: TX 2 cells (line derived from breast tumors which no longer respond to Taxol); test: Growth inhibition of Taxol-resistant TX 2 cells; type: cell-based; conditions: after 24 H of culture
Experimental: as §1

[10] = tested on: HL 60 leukemic lymphocytes (L.1, acute promyelocytic leukemia cell line); test: MTT cell viability, leukemic lymphocyte line L.1; type: cell-based; conditions: line L.1, 48 hours of treatment
Normal lymphocytes (L.6) = test: MTT cell viability, normal lymphocytes; type: cell-based; conditions: normal lymphocytes L.6, 48 hours of treatment
[11] = tested on: H2 95R (Adrenal medullary tumor); test: MTT cell viability, H2 95R adrenal line; type: cell-based; conditions: 48 hours of treatment
[12] = tested on: MiaPaCa (Human pancreatic tumor); test: MTT cell viability, MiaPaCa pancreatic line; type: cell-based; conditions: 48 hours of treatment
A549 lung cancer cells = test: Immunofluorescent labeling of microtubule network, A549; type: cell-based; conditions: A549, 15 μM, 4 hours at 37° C.
MNT-1 (Human melanoma) = test: MTT cell viability, MNT-1 melanoma line; type: cell-based; conditions: MNT-1, 48 hours of treatment
A 549 (Human lung tumor) = test: MTT cell viability, A549 lung cancer line; type: cell-based; conditions: A 549, 48 hours of treatment
Experimental: Approximately 10 000 cells were seeded, in a volume of 0.2 mL per well, into 96-well microplates for 24 hours before treatment with the peptide of SEQ. 1. The cells were incubated for 48 to 72 hours at 37° C. in a CO2 incubator in the presence or absence of the peptide of SEQ. 1 at various concentrations.
Following this incubation, MTT reagent or 3-(4,5-dimethyl[…])-2,5-diphenyltetrazolium bromide (0.5 mg/ml in a volume of 0.1 ml) was added to each well and incubated for 2 hours at 37° C.
The tetrazolium ring contained by the MTT is then reduced by the succinate dehydrogenase of the live cells, to give formazan. Next, the supernatant was removed and 0.1 ml of lysis buffer (isopropanol containing 10% of triton×100 and 10% of 1N HCl) was added in order to dissolve the bluish violet formazan precipitate formed. After a few minutes, the absorbance was determined at ambient temperature using a microplate reader at a test wavelength of 562 nm. Wells not comprising peptide of SEQ. 1 were used so as to verify the viability of control cells. IC 50 (concentration of peptide of SEQ. 1 causing 50% cytotoxicity on these cell lines) values for each cell variety were evaluated by means of the ratio of the absorbance of the treated cells to the absorbance of the control cells. […]

HepG2 (Hepatoma) = test: MTT cell viability, HepG2 liver line; type: cell-based; conditions: HepG2, 48 hours of treatment
[13] = tested on: U 937 leukemic lymphocytes (L.3, leukemia cell line); test: MTT cell viability, leukemic lymphocyte line L.3; type: cell-based; conditions: line L.3, 48 hours of treatment
[14] = tested on: MenoMac 6 leukemic lymphocytes (L.5, monocytic cell line); test: MTT cell viability, leukemic lymphocyte line L.5; type: cell-based; conditions: line L.5, 48 hours of treatment
SK-N-F1 (Neuroblastoma) = test: MTT cell viability, SK-N-F1 neuroblastoma line; type: cell-based; conditions: SK-N-F1, 48 hours of treatment
cancer cells = test: Resistance of cancer cells to the peptides (preliminary experiments); type: cell-based
Fibro 1 and 2 = test: MTT cell viability, Fibro 1 and 2 together; type: cell-based, human; conditions: Fibro 1 and 2, 72 hours of treatment
A549 tumor cells = test: Plasma membrane effects: phase contrast observation and counting of adherent cells; type: cell-based; conditions: 15 μM

For “INWLKIAKKVAGML-NH2 [SEQ. 1, INWLKIAKKVAGML-NH2]”, the IC50 [1] was 17.8 µM, the IC50 [2] was 52.4 µM and the IC50 [3] was 16.5 µM. The “modification of microtubule network (immunofluorescence)” value (“modification of microtubule network” below) (MNT-1 melanoma cells) was “significant increase in fluorescence”, the growth inhibition [4] was “significant” and the “modification of microtubule network” value (PANC 1 pancreatic cells) was “significant increase in fluorescence”. The “turbidity during microtubule polymerization (optical density at 345 nm)” value [5] was “considerable increase in turbidity”, the IC50 [6] was 22 µM and the IC50 (U87 M6 (Glioblastoma); U87-M6, 72 hours of treatment) was 6 µM. The IC50 (U87 M6 (Glioblastoma); U87 M6, 48 hours of treatment) was 15.3 µM, the IC50 [7] was 14.3 µM and the “ability of microtubules to depolymerize” value [8] was “decrease in the ability of the microtubules to depolymerize”. For the same substance, the growth inhibition [9] was “significant”, the IC50 [10] was 7.9 µM and the IC50 (Normal lymphocytes (L.6)) was greater than 10 µM. The IC50 [11] was 5.4 µM, the IC50 [12] was 23.1 µM and the “modification of microtubule network” value (A549 lung cancer cells) was “formation of very dense polymers of tubulin”. The IC50 (MNT-1 (Human melanoma)) was 8.3 µM, the IC50 (A 549 (Human lung tumor)) was 4.4 µM and the IC50 (HepG2 (Hepatoma)) was 35.6 µM. The IC50 [13] was 4.1 µM, the IC50 [14] was 4.5 µM and the IC50 (SK-N-F1 (Neuroblastoma)) was 2.88 µM. For the same substance, the “induction of resistance in cancer cells” value (cancer cells) was “not inducing a rapid resistance process”, the IC50 (Fibro 1 and 2) was greater than 25 µM and the “number of A549 tumor cells (phase contrast)” value (A549 tumor cells; after 2 and 4 hours of treatment) was “greatly decreased”. For the same substance, the “number of A 549 cells retaining substrate-adhesion properties” value (A549 tumor cells; as a function of time) was “decreases as a function of incubation time”.
